# Measurements taken from PubChem BioAssay AID1794844 (National Center for Advancing Translational Sciences (NCATS), 2023).
# By UniProt entry, the sequences of proteins in these tests, tags left out. Where a name states a change or a piece, a line headed by the entry shows the natural chain unless it says otherwise.
# UniProt C7C422: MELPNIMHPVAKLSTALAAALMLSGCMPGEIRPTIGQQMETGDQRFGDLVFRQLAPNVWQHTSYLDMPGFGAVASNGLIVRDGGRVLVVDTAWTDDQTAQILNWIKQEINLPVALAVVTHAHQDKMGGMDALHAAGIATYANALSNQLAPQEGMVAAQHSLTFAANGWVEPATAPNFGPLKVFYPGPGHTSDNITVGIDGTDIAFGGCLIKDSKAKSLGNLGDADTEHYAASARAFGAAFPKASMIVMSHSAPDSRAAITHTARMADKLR
# Screen size: about 2,800 compounds; fewer than 10 were called active. Another 7% or so got no clear call; they are omitted. Calls come from the whole dose curve; as a rule, active = well fitted inhibition curve with a large enough effect; inconclusive = small, poorly fitted or top-dose-only effect; inactive = no such curve, though single readings can be large or run the other way. The list shows a part of the results.
# Molecular target: Metallo-beta-lactamase type 2 (Klebsiella pneumoniae) (UniProt C7C422)
# Assay: qHTS to identify inhibitors of the New Delhi Metallo-beta-lactamase (NDM): Nitrocefin screen against the machine-based learning selections. Note: % of control where 0% means no effect.
# Conditions: NDM-1 enzyme, nitrocefin hydrolysis, absorbance 485 nm; activity, negative = inhibition: at the top concentration
# Outline: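 NDM-1 (2 nM final) in 50 mM HEPES pH 7.0, 1 uM Zn2SO4, 0.01% Tween20 was preincubated with compounds for >30 min. Nitrocefin (16.7 uM final) was read at 485 nm after 15 min, and meropenem (50 uM final) at 300 nm after 30 min.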
row,SMILES,"activity, negative = inhibition"
1,Cc1cc(CNC(=O)c2cc(-c3ccco3)nc3c(Cl)cccc23)no1,inactive: -8.97%
2,O=C(O)C1(Oc2ccc3ccccc3c2)CCN(Cc2ccsc2)CC1,inactive: 0.586%
3,Cc1nc2cc(N3CCCC(C(=O)NCCN4CCCCCC4)C3)cnc2nc1C (stereo unspecified),inactive: -6%
4,COC(=O)CCNC(=O)C1c2ccccc2C(=O)N(Cc2ccco2)C12CCCCC2 (stereo unspecified),inactive: -0.629%
5,CCCN[C@H]1C[C@@H](Cc2cc(COc3ccccc3)on2)C1(C)C,inactive: -0.0387% [at 57.5 µM]
6,O=C(CC[C@@H]1CNC(=O)[C@@H]2C[C@H](NC(=O)Nc3cccc(Cl)c3)CN12)NCc1cccnc1,inactive: -15.3%
7,COCc1cc(C[C@@H]2C[C@H](NC3CCN(C(C)=O)CC3)C2(C)C)no1,inactive: 3.74% [at 57.5 µM]
8,CC(C)C[C@@H](NC(=O)C1=C[C@@H](NC(=O)CC(C)(C)C)[C@@H](O)[C@H](O)C1)C(N)=O,inactive: -0.399% [at 57.5 µM]
9,Cc1nc(N2CCCCC2)ncc1C(=O)NC1CCOC2(CCOCC2)C1 (stereo unspecified),inactive: -10.2%
10,COc1ccc2[nH]c(C[C@@H]3C[C@@H](C(C)C)[C@H](CNCc4ccccc4O)C=C3C)nc2n1,inactive: 0.657% [at 57.5 µM]
11,C#CCNC(=O)[C@H]1O[C@H](CCN2CCOCC2)CC[C@@H]1O,inactive: -0.0814% [at 57.5 µM]
12,O=C(NC[C@H]1OC[C@@H](N(Cc2ccccc2F)Cc2ccccc2F)[C@@H]1O)c1ccccc1,inactive: 6.97%
13,O=C(Cc1c[nH]c2ncc(-c3cccnc3)cc12)Nc1ccc(C(F)(F)F)cc1,inactive: 6.66% [at 57.5 µM]
14,CNC(=O)[C@@H]1C[C@H](n2cc(CNC(=O)Nc3ccc(C)c(Cl)c3)nn2)CN1,inactive: -11.5%
15,CN1C[C@H](C(=O)Nc2ccccc2)C[C@H]1c1cccc(C(F)(F)F)c1,inactive: -10.2% [at 57.5 µM]
16,COc1ccc(C(=O)N[C@@H]2CN(C(=O)Nc3ccc(OC(F)(F)F)cc3)CCC[C@H]2O)cc1,inactive: 0.345%
17,CS(=O)(=O)N1CCCCCNC(=O)CC1c1ccccc1 (stereo unspecified),inactive: 0.042%
18,C[C@]1(O)CCN(C(=O)c2ccc3c(c2)CCCC3)C[C@@H]1O,inactive: -8.47%
19,Cn1nc(C2CCN(C(=O)c3nccc4ccccc34)CC2)c2c1CCOC2,inactive: 0.202%
20,COCCNC(=O)CC[C@]12CC[C@](C)(O)C[C@H]1C(C)(C)C[C@@H]2NC(=O)CC(C)(C)C,inactive: -2.33% [at 57.5 µM]
21,COC(=O)CO[C@@H]1CO[C@H]2[C@@H]1OC[C@@H]2NC(=O)Nc1cccc(C(F)(F)F)c1,inactive: -2.32% [at 57.5 µM]
22,O=c1c2nc(NCc3ccccc3)ccc2ncn1Cc1ccccn1,inactive: -11.6% [at 57.5 µM]
23,COC(=O)[C@H](NC(=O)[C@@H]1C[C@@H](NC(=O)Nc2cccc(F)c2)CCN1C(=O)CCC(=O)O)C(C)C,inactive: 0.266%
24,COc1ccc(CNC(=O)[C@H]2O[C@H](CCN3CCN(c4ccccc4OC)CC3)CC[C@@H]2O)cc1,inactive: -4.67%

row,SMILES,"activity, negative = inhibition"
1,OCCC1CCN(c2ccc(-c3nc(CCCc4ccccc4)no3)cn2)CC1,inactive: 22.1%
2,O=C(NCCc1ccccn1)c1ccnc(-c2nnc3ccc(Nc4ccccc4)nn23)c1,inactive: 3.43% [at 57.5 µM]
3,CC(C)NC(=O)N1CCC(O)(c2csc(CN3CC[C@@H](O)C3)n2)CC1,inactive: -4.53% [at 57.5 µM]
4,CC(C)N1CCOC[C@H]1c1ncc(-c2ccc(F)cc2)[nH]1,inactive: -3.53% [at 76.7 µM]
5,CC(=O)Nc1ccc(C2(C(=O)NCc3cccc(F)c3)CCC2)cc1,inactive: -0.945%
6,Cc1ccccc1-c1cnc2[nH]cc(CC(=O)Nc3ccccc3)c2c1,inactive: 4.8% [at 57.5 µM]
7,CC(=O)Nc1ccc(CN2CCC(N3CCCCCC3=O)CC2)cc1,inactive: -11.6%
8,Cc1cc(-c2cnc3[nH]cc(CC(N)=O)c3c2)ccn1,inactive: 22.8% [at 76.7 µM]
9,O=C(Cc1ccc(Cl)cc1)N[C@H]1[C@H](O)[C@H](O)C[C@@H]1c1cccnc1,inactive: -0.774% [at 57.5 µM]
10,CCn1cnnc1CC1CCCN(S(=O)(=O)c2ccccc2C)C1 (stereo unspecified),inactive: 0.125%
11,CC1(CCCCc2ccccc2)COc2ccc(C(=O)NC3CCC(O)CC3)cc2N1 (stereo unspecified),inactive: 2.52% [at 57.5 µM]
12,OC(c1cccc(C(F)(F)F)c1)c1nc(Nc2ccc3c(c2)OCO3)n[nH]1 (stereo unspecified),inactive: -3.57% [at 57.5 µM]
13,CC(C)C(=O)N1CCC(Oc2cccnc2)C1 (stereo unspecified),inactive: -4.49%
14,O=C(c1ccccn1)N1CCCC2(C1)Nc1cccnc1NC2=NC1CCCC1 (stereo unspecified),inactive: -5.4%
15,O=C(C1CCCC1)N1CCOC[C@H](Oc2ccc(C(F)(F)F)cc2)C1,inactive: 5.8% [at 57.5 µM]
16,CN(CC1CCOCC1)S(=O)(=O)Cc1cccc(Cl)c1,inactive: 1.33%
17,CO[C@@H]1COCC[C@H]1NC(=O)CCCn1nnc(-c2ccc(F)cc2)n1,inactive: 0.749%
18,CC(C)CC(=O)N1CCc2ccc(S(=O)(=O)N(C)Cc3nccs3)cc2C1,inactive: -2.14%
19,O=C(Cc1c[nH]c2ncc(-c3ccc(F)cc3)cc12)NCc1cccnc1,inactive: 20.7% [at 57.5 µM]
20,O=C(c1cccc(F)c1)N1CCC(Cc2nc(C3CCOCC3)no2)CC1,inactive: -4.17%
21,O=C(O)c1ccnc(-c2ccnc(NCC(O)c3ccccc3Cl)n2)c1 (stereo unspecified),inactive: -1.81%
22,Cc1noc2c(-c3cccc(CO)c3)cc(-c3ccccc3)nc12,inactive: 16.5% [at 57.5 µM]
23,COc1ccc(C(=O)N[C@@H]2CN(C(=O)Nc3ccccc3)CCC[C@H]2O)cc1,inactive: -1.38% [at 57.5 µM]
24,c1ccc(-c2ccc3ncc(Nc4ccccn4)n3n2)cc1,inactive: -8.06% [at 76.7 µM]

# Of the compounds above, these contain a COOH group:
row,SMILES,"activity, negative = inhibition"
2,O=C(O)C1(Oc2ccc3ccccc3c2)CCN(Cc2ccsc2)CC1,inactive: 0.586%
23,COC(=O)[C@H](NC(=O)[C@@H]1C[C@@H](NC(=O)Nc2cccc(F)c2)CCN1C(=O)CCC(=O)O)C(C)C,inactive: 0.266%
21,O=C(O)c1ccnc(-c2ccnc(NCC(O)c3ccccc3Cl)n2)c1 (stereo unspecified),inactive: -1.81%

# (next part)

row,SMILES,"activity, negative = inhibition"
1,Clc1cccc(Nc2cc3c(cn2)CN(Cc2cccnc2)CCN3)c1,inactive: 8.98% [at 57.5 µM]
2,O=C1NCCCc2[nH]c(-c3csc(-c4cnccn4)n3)nc21,inactive: 0.943%
3,CN1C[C@@H](NC(=O)c2cccnc2)C[C@H]1c1nc(-c2ccncc2)no1,inactive: 1.55% [at 57.5 µM]
4,CC(=O)N1CCC(N2CC[C@H](c3nc4ncccc4[nH]3)C2)CC1,inactive: -8.84% [at 57.5 µM]
5,Cc1ccc(S(=O)(=O)N2CCCC(Cn3c(C)nc4cccnc43)C2)cc1Cl (stereo unspecified),inactive: 6.12%
6,CCC[C@@H]1CN(C(=O)c2ccc(OC)o2)C[C@H]1C(=O)O,inactive: 24.3%
7,O=C(Nc1cccc(F)c1)C1CCN(C(=O)N2CC3CC(C2)[C@H]2CCCC(=O)N2C3)CC1 (stereo partly specified),inactive: 26.6%
8,CCCS(=O)(=O)N1CCC(N2CCCC(C(=O)N3CCOCC3)C2)CC1 (stereo unspecified),inactive: -13.9%
9,CCCN(C)C(=O)CC1COCCN1C(=O)Nc1cccc(SC)c1 (stereo unspecified),inactive: 2.61%
10,O=C(CCc1ccccc1)N1CCNc2cnc(Nc3ccc(-n4ccnc4)cc3)nc2C1,inactive: -31%
11,Cc1cc(-c2cnc3[nH]cc(CC(=O)NCc4cccnc4)c3c2)ccn1,inactive: 3.67% [at 57.5 µM]
12,Cc1ccccc1[C@H]1C[C@@H](O)[C@@H](O)[C@@H]1NS(C)(=O)=O,inactive: -0.206% [at 76.7 µM]
13,O=C(COc1ccccc1)N1CCCC(Nc2ccc(F)cc2)C1 (stereo unspecified),inactive: -0.0388%
14,Cc1cc(CNC(=O)[C@@H]2CCC[C@@H](NC(=O)c3ccc(C#N)cc3)CN(C)C(=O)C2)no1,inactive: 1.94%
15,COc1cc(-c2nc3cc4[nH]c(=O)[nH]c4cc3[nH]2)cc(OC)c1O,inactive: 5.31%
16,O=C1Nc2ccc(-c3ccc(Cl)cc3)cc2C(=O)N2CC[C@H](NS(=O)(=O)c3cccs3)C[C@@H]12,inactive: 15.3%
17,O=C(NC1CCCCCC1)c1ccc2c(c1)CC(=O)N2Cc1ccc(F)cc1,inactive: -0.0308%
18,CSc1cccc(NC(=O)Cn2c(N3CCOCC3)nc(C)cc2=O)c1,inactive: -3.27%
19,Cc1ccccc1-c1[nH]nc2ncc(-c3ccccc3O)nc12,inactive: -8.85% [at 57.5 µM]
20,COc1ccc(C(=O)N[C@H]2C[C@H]3C(=O)Nc4ccc(-c5ccsc5)cc4C(=O)N3C2)cc1,inactive: 3.87%
21,Cc1n[nH]c(C)c1CCC(=O)N1CCCC(c2ccc(C(=O)O)cc2)C1 (stereo unspecified),inactive: 4.03%
22,O=C1CC(C(=O)O)C2(CCN(c3ncc(C(=O)O)cc3Cl)CC2)N1 (stereo unspecified),inactive: -1.43%
23,O=C(O)[C@H]1C[C@H](C(=O)NCc2ccccn2)CN(Cc2ccccc2)C1,inactive: 8.13%
24,CN1CCN(c2nc3c(c(=O)[nH]2)CCN(Cc2ccccc2C(F)(F)F)CC3)CC1,inactive: 2.54%

row,SMILES,"activity, negative = inhibition"
1,N#Cc1cccc(CN[C@H]2[C@H](O)[C@H](O)C[C@@H]2c2ccc(N3CCOCC3)nc2)c1,inactive: 1.42% [at 57.5 µM]
2,COC(=O)[C@H](NC(=O)C1=C[C@@H](NC(=O)Nc2cccc(F)c2)[C@@H](O)[C@H](O)C1)C(C)C,inactive: -1.49% [at 57.5 µM]
3,Cc1cccc(-c2cnc3[nH]cc(CC(N)=O)c3c2)c1,inactive: -11.5% [at 76.7 µM]
4,c1ccc(CN2CCNc3cc(Nc4ccc(N5CCOCC5)cc4)ncc3C2)cc1,inactive: 2.95% [at 57.5 µM]
5,O=C1CCC(CNC(=O)c2nc(-c3ccccc3)cc3[nH]ccc23)N1 (stereo unspecified),inactive: -3.45% [at 57.5 µM]
6,COc1cc(C)c2c(c1C)C[C@H](C(C)C(=O)NCc1ccco1)CC2 (stereo partly specified),inactive: 10.1% [at 57.5 µM]
7,COc1ccc(CN2Cc3[nH]cnc3C[C@H]2c2nc(-c3ccc(C(F)(F)F)cc3)no2)cc1,inactive: 1.26%
8,Fc1ccc(C2Cn3nnc(-c4nc(-c5ccc6c(c5)OCO6)no4)c3CO2)cc1 (stereo unspecified),inactive: -10.3%
9,CCCCc1cc(C[C@@H]2C[C@H](NC(=O)NCC)C2(C)C)no1,inactive: -8.33% [at 57.5 µM]
10,Cc1ccc(-c2cc(N3CCCN(C(=O)CCc4ccccc4)CC3)n[nH]2)cc1C,inactive: -8.23%
11,O=C(Cc1csc(-c2ccccc2)n1)N[C@H](c1ccccn1)C1CC(O)C1 (stereo partly specified),inactive: -2.32%
12,CN1C[C@@H](NC(=O)Nc2ccccc2)C[C@H]1c1nc(-c2ccc(F)cc2)no1,inactive: -6.2% [at 57.5 µM]
13,COc1cccc(-c2cnc3[nH]cc(CC(N)=O)c3c2)c1,inactive: 6.17% [at 76.7 µM]
14,Fc1ccc(CNC[C@H]2Cn3c(-c4ccc5c(c4)OCCO5)cnc3CO2)cc1,inactive: -19.3% [at 57.5 µM]
15,O=C(NCCc1ccccc1)c1cnc2c(c1)N([S+](=O)([O-])c1cccnc1)CCC2,inactive: 10.2% [at 57.5 µM]
16,CC(C)(Cc1ccc(F)cc1)NC(=O)C1CCC(=O)N(Cc2ccccn2)C1 (stereo unspecified),inactive: -2.59%
17,O=C(CCc1ccccc1)N1CCNc2cnc(Nc3cccnc3)nc2C1,inactive: 2.66% [at 57.5 µM]
18,CC(C)(C)c1ccc(-c2cc(C[C@H]3CNCC[C@H]3CC(=O)NCc3cccnc3)no2)cc1,inactive: -16.2%
19,CC(C)C[C@@H]1N[C@H](C(=O)NCc2cccs2)Cc2cn(CC3CC3)c3cccc1c23,inactive: 13.2% [at 57.5 µM]
20,Cc1noc([C@@H]2CN(C(=O)c3cc(C)n(Cc4ccco4)c3C)C[C@H]2C(N)=O)n1,inactive: -5.64%
21,Nc1ncccc1CN1CC[C@@H]2OCC(=O)N(Cc3ccc(O)cc3)[C@H]2CC1,inactive: 2.24% [at 57.5 µM]
22,CC1(C(=O)NCc2cccnc2)CCc2cnc(Nc3ccccc3)nc21 (stereo unspecified),inactive: 3.05% [at 57.5 µM]
23,O=C(N[C@H](c1cccs1)C1CC(O)C1)c1cccc(-n2cccn2)c1 (stereo partly specified),inactive: -1.64%
24,NC(=O)COc1ccc(C(=O)N[C@@H]2CN(C(=O)NC3CCCCC3)CCC[C@H]2O)cc1,inactive: -7.2% [at 57.5 µM]

# Quoted from the listing:
# `CC(C)N1CCOC[C@H]1c1ncc(-c2ccc(F)cc2)[nH]1` | activity, negative = inhibition: inactive: -3.53% [at 76.7 µM]
# `OCCC1CCN(c2ccc(-c3nc(CCCc4ccccc4)no3)cn2)CC1` | activity, negative = inhibition: inactive: 22.1%
